According to patent US7348404 (dated 2008):

How the values were obtained:
Conditions in all cases: whole synthesis, scale of the general procedure 500 mg resin
[1] = general procedure: Fmoc solid-phase peptide synthesis in flow; Fmoc-Lys(Boc) PepSyn KA; Fmoc-amino acid Pfp esters with Dhbt-OH; HObt esters by DIC
[2] = general procedure: Fmoc solid-phase peptide synthesis in flow; Fmoc-Lys(Boc) PepSyn KA resin (0.086 mmol/g); PepSyn K; NovaSyn TG; Fmoc-amino acid Pfp esters with Dhbt-OH; HObt esters by DIC
[3] = general procedure: Fmoc solid-phase peptide synthesis in flow; PepSyn K; Fmoc-amino acid Pfp esters with Dhbt-OH; HObt esters by DIC
[4] = general procedure: Fmoc solid-phase peptide synthesis in flow; PepSyn KA; Fmoc-amino acid Pfp esters with Dhbt-OH; HObt esters by DIC

## H-Ala10-Lys3-OH
[1]
  crude yield: 91.0%
[2]
  crude HPLC purity: better than 98%

## H-Val-Asn-Val-Asn-Val-Gln-Val-Gln-Val-Asp-Lys6-OH
[1]
  crude HPLC purity: better than 90% pure
[2]
  crude yield: 100%

## H-Ala20-Lys6-OH
[1]
  crude yield: 91.4%
[2]
  crude HPLC purity: better than 98%

## H-Ala20-Lys-(Gly-Lys)3-OH
[1]
  crude HPLC purity: better than 98% pure
[2]
  crude yield: 97%

## H-Ala10-Lys-OH
[1]; run 1
  difficulty met: complicated mixture comprising the target peptide (n=10) as well as deletion peptides
[3]; run 2
  difficulty met: target peptide H-Alan-Lys-OH (n=10) as well as deletion peptides corresponding to n=9, 8, 7, and 6
[3]; run 3
  difficulty met: target peptide H-Alan-Lys-OH (n=10) as well as deletion peptides corresponding to n=9, 8, 7, and 6
[3]; run 4
  difficulty met: target peptide H-Alan-Lys-OH (n=10) as well as deletion peptides corresponding to n=9, 8, 7, and 6

## H-Ala20-Lys3-OH
[4]
  difficulty met: target peptide H-Alan-Lys3-OH (n=20) as well as deletion peptides corresponding to n=19, 18, 17, and 16

## H-Ala10-Lys6-OH
[1]
  crude yield: 90.9%
[2]
  crude HPLC purity: better than 98%
